Drawing on PMC3698177, this text covers binding for one substance.

Protein sequences, listed by entry. Tags and fused reporters are not part of them.
UniProt O95996: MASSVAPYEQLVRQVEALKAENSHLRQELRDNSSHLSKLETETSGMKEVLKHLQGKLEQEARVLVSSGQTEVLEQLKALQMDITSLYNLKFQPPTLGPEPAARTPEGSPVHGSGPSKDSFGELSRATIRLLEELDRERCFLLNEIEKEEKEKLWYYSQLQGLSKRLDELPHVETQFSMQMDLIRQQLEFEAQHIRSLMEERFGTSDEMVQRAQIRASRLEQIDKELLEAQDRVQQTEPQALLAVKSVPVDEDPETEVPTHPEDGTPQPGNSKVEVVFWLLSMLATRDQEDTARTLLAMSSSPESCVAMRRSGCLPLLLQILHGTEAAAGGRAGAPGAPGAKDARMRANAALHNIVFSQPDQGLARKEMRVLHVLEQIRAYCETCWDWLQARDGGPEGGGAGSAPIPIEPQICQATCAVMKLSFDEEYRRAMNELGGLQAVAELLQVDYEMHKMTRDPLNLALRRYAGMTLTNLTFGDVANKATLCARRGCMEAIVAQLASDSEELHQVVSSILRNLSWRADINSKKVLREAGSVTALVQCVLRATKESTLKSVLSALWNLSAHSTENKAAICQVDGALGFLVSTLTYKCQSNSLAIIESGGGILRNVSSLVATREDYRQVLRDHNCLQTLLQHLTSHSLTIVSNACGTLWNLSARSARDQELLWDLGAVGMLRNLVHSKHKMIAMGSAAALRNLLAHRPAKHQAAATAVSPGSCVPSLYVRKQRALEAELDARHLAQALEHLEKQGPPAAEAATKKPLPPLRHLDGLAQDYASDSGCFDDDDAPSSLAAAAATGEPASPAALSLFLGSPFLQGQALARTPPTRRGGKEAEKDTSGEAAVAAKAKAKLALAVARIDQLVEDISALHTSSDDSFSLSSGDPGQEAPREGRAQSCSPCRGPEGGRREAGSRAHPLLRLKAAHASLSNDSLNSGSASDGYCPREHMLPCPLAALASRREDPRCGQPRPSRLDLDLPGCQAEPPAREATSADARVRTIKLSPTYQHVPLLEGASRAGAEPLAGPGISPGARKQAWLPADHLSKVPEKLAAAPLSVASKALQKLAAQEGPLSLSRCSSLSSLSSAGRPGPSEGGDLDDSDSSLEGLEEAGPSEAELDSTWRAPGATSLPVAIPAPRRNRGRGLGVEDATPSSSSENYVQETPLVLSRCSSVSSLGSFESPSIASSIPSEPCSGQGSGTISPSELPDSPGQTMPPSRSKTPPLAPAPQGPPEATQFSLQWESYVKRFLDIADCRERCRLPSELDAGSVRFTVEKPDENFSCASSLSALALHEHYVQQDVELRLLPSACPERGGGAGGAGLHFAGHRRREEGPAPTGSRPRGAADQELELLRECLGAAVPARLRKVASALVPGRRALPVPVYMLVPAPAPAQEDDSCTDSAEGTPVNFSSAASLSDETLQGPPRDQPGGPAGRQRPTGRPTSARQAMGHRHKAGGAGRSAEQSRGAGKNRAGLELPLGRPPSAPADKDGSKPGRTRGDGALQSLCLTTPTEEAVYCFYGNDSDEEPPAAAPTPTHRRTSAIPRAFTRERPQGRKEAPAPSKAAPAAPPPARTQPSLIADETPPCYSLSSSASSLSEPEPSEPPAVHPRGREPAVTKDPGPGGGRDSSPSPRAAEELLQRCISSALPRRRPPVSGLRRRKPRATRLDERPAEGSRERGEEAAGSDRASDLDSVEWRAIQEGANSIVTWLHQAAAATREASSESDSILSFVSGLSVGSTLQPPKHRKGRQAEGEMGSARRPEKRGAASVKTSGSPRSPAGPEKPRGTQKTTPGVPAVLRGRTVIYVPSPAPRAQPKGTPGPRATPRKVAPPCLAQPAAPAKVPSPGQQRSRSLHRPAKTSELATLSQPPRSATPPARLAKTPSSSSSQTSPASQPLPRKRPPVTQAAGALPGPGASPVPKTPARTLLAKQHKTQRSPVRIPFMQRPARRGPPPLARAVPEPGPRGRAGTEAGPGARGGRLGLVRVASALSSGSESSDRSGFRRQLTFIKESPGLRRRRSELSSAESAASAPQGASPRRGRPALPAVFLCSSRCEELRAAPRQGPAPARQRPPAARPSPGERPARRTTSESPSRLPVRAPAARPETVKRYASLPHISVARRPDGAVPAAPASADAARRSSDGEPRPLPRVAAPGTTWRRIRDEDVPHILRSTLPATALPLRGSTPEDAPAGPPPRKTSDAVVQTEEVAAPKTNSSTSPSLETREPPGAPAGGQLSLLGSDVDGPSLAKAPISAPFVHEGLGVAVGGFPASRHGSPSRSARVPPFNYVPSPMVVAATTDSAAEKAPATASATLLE
UniProt P35222: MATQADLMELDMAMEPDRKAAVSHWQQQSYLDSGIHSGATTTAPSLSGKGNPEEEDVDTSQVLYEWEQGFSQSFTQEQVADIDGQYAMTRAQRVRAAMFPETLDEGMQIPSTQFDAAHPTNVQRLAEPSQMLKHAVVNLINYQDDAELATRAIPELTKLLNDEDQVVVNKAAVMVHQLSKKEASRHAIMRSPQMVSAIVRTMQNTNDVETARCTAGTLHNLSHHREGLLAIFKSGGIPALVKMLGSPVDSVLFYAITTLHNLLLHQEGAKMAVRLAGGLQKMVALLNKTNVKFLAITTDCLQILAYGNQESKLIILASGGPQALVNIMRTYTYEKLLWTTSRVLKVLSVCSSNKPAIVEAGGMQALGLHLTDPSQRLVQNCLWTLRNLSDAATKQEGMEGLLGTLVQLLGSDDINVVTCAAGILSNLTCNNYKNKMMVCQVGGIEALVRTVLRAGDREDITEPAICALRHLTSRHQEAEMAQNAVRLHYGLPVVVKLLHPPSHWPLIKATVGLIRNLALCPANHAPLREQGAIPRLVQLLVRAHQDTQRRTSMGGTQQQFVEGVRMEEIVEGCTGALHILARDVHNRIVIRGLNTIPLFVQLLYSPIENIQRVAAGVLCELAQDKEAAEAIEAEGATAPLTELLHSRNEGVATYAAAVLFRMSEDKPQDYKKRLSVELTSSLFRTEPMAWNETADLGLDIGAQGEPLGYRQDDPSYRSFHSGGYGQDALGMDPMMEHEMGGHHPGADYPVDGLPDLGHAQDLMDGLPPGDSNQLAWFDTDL

No constants are given. Whether binding was seen depends on the method and setting. In cells and extracts the contact can be indirect. Some results given as binding are weak or reduced against the parent protein; the word gives no strength.

This assay deals with YFP-APCL (human) (UniProt O95996). Description: co-IP; Triton-X100 extract of 293T cells transfected with the YFP fusion, mixed with an SW480 Triton-X100 extract as a source of β-catenin; immunoprecipitation with anti-GFP, western blot; washes in 50 mM TrisHCl pH8, 150 mM NaCl, 5 mM EDTA, 1% Triton-X100. (Immunoblotting shows a protein as a band on a membrane.)

For β-catenin (from UniProt P35222 1-781), the binding result is listed as “binds”.
